{"source": "PubChem BioAssay AID1259425 (University of Nebraska Medical Center, 2018)", "test": "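Compare each knockdown with KSR1 silencing using changes in marker transcripts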 (primary screen)", "cell system": "HCT116 human colon cancer cells", "reagent": "siRNA pool against human genes, 50 nM siRNA", "measured": "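mRNA of six signature genes measured together by branched-DNA assay after 50 nM siRNA pool, blank removed, divided by geometric mean of two housekeeping genes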", "direction": "BNIP3L mRNA: higher = more BNIP3L transcript after knockdown", "note": "In all, the deposit lists about 14,000 reagents; below is an unselected part. Not all columns of the deposit are shown. Not stated in the record: the time to read-out."}
{"gene knocked down": "MSH6 (mutS homolog 6)", "BNIP3L mRNA, set 1": 0.159}
{"gene knocked down": "CDH5 (cadherin 5)", "BNIP3L mRNA, set 1": 0.16}
{"gene knocked down": "GABRE (gamma-aminobutyric acid type A receptor subunit epsilon)", "BNIP3L mRNA, set 1": 0.137}
{"gene knocked down": "ACACB (acetyl-CoA carboxylase beta)", "BNIP3L mRNA, set 1": 0.0657}
{"gene knocked down": "DHDH (dihydrodiol dehydrogenase)", "BNIP3L mRNA, set 1": 0.0678}
{"gene knocked down": "FBRS (fibrosin)", "BNIP3L mRNA, set 1": 0.0971}
{"gene knocked down": "TMEM63B (transmembrane protein 63B)", "BNIP3L mRNA, set 1": 0.512}
{"gene knocked down": "IL1R2 (interleukin 1 receptor type 2)", "BNIP3L mRNA, set 1": 0.0859}
{"gene knocked down": "SLC35C1", "BNIP3L mRNA, set 1": 0.141}
{"gene knocked down": "TPGS2 (tubulin polyglutamylase complex subunit 2)", "BNIP3L mRNA, set 1": 0.104}
{"gene knocked down": "NQO1 (NAD(P)H quinone dehydrogenase 1)", "BNIP3L mRNA, set 1": 0.121}
{"gene knocked down": "GJD2 (gap junction protein delta 2)", "BNIP3L mRNA, set 1": 0.108}
{"gene knocked down": "STAT2 (signal transducer and activator of transcription 2)", "BNIP3L mRNA, set 1": 0.133}
{"gene knocked down": "PLEKHG2 (pleckstrin homology and RhoGEF domain containing G2)", "BNIP3L mRNA, set 1": 0.122}
{"gene knocked down": "PRKY (protein kinase Y-linked (pseudogene))", "BNIP3L mRNA, set 1": 0.227}
{"gene knocked down": "MYCL (MYCL proto-oncogene, bHLH transcription factor)", "BNIP3L mRNA, set 1": 0.0955}
{"gene knocked down": "CSDE1 (cold shock domain containing E1)", "BNIP3L mRNA, set 1": 0.093}
{"gene knocked down": "HLA-DQB1 (major histocompatibility complex, class II, DQ beta 1)", "BNIP3L mRNA, set 1": 0.0667}
{"gene knocked down": "RAP2B (RAP2B, member of RAS oncogene family)", "BNIP3L mRNA, set 1": 0.104}
{"gene knocked down": "CCDC77 (coiled-coil domain containing 77)", "BNIP3L mRNA, set 1": 0.142}
{"gene knocked down": "MYH7B (myosin heavy chain 7B)", "BNIP3L mRNA, set 1": 0.134}
{"gene knocked down": "SYNJ2 (synaptojanin 2)", "BNIP3L mRNA, set 1": 0.142}
{"gene knocked down": "CPPED1 (calcineurin like phosphoesterase domain containing 1)", "BNIP3L mRNA, set 1": 0.0876}
{"gene knocked down": "STX18 (syntaxin 18)", "BNIP3L mRNA, set 1": 0.112}
{"gene knocked down": "ITGB5 (integrin subunit beta 5)", "BNIP3L mRNA, set 1": 0.106}
{"gene knocked down": "SEL1L (SEL1L adaptor subunit of SYVN1 ubiquitin ligase)", "BNIP3L mRNA, set 1": 0.121}
{"gene knocked down": "CRISP3 (cysteine rich secretory protein 3)", "BNIP3L mRNA, set 1": 0.126}
{"gene knocked down": "PRKRA", "BNIP3L mRNA, set 1": 0.109}
{"gene knocked down": "NDUFA13 (NADH:ubiquinone oxidoreductase subunit A13)", "BNIP3L mRNA, set 1": 0.124}
{"gene knocked down": "ACAA2 (acetyl-CoA acyltransferase 2)", "BNIP3L mRNA, set 1": 0.0699}
{"gene knocked down": "HSPC047 (retired record)", "BNIP3L mRNA, set 1": 0.198}
{"gene knocked down": "RPL39 (ribosomal protein L39)", "BNIP3L mRNA, set 1": 0.14}
{"gene knocked down": "SEPTIN7 (septin 7)", "BNIP3L mRNA, set 1": 0.0503}
{"gene knocked down": "KCNG1", "BNIP3L mRNA, set 1": 0.18}
{"gene knocked down": "ILKAP (ILK associated serine/threonine phosphatase)", "BNIP3L mRNA, set 1": 0.0839}
{"gene knocked down": "LTBP3 (latent transforming growth factor beta binding protein 3)", "BNIP3L mRNA, set 1": 0.118}

Copied from the entries so far (4 entries):
{"gene knocked down": "RAP2B (RAP2B, member of RAS oncogene family)", "BNIP3L mRNA, set 1": 0.104}
{"gene knocked down": "CCDC77 (coiled-coil domain containing 77)", "BNIP3L mRNA, set 1": 0.142}
{"gene knocked down": "MYH7B (myosin heavy chain 7B)", "BNIP3L mRNA, set 1": 0.134}
{"gene knocked down": "SYNJ2 (synaptojanin 2)", "BNIP3L mRNA, set 1": 0.142}
